Paper PMC11939966
These are yes or no findings as the source states them, for the method shown. Some results given as binding are weak or reduced against the parent protein; the word gives no strength.

Sequences of proteins named here, by UniProt entry; tags and fusion partners are left off. A change or cut given only in a name is not applied to a line headed by its entry. A line that says so, or that is headed by a name, gives the form on record, which may keep a tag or linker.
CNOT1(800–999) E893A/Y900A (A5YKK6, form named): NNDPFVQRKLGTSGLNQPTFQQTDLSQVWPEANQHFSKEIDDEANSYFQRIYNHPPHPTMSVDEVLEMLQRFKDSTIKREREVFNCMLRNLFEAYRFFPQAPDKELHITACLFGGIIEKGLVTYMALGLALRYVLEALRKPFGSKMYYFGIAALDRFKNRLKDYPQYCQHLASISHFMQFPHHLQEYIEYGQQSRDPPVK
CNOT1(800–999) (A5YKK6, form named): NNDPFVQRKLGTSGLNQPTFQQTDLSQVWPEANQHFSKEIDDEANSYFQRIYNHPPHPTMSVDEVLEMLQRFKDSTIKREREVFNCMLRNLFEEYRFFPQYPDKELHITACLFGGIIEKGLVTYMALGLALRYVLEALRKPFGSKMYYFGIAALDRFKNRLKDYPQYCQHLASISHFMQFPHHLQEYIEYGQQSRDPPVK
CNOT1(800–999) E893Q/Y900H (A5YKK6, form named): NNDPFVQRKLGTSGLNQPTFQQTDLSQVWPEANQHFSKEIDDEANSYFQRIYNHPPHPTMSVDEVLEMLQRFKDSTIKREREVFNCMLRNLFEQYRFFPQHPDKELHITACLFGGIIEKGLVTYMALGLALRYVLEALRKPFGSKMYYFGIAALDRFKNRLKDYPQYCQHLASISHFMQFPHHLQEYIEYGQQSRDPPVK

Experiments:
[1] = molecular target: CNOT1(800–999) E893A/Y900A (human) (UniProt A5YKK6); assay: condition: TTP peptide at 3.3 μM, CNOT1 mutant at 2 μM; HDX-MS; CNOT1(800–999) form at 2 μM incubated with TTP peptide at 3.3 μM, both in solution, compared with the apo state; deuteration 10 s to 2 h in 50 mM Tris, 150 mM NaCl, 2 mM DTT, 1 mM EDTA, pD 7.0; both purified
CNOT1(800–999) (human) = CNOT1(800–999) (human) (UniProt A5YKK6); assay: HDX-MS; CNOT1(800–999) form at 2 μM incubated with TTP peptide at 3.3 μM, both in solution, compared with the apo state; deuteration 10 s to 2 h in 50 mM Tris, 150 mM NaCl, 2 mM DTT, 1 mM EDTA, pD 7.0; both purified
[2] = molecular target: CNOT1(800–999) E893Q/Y900H (human) (UniProt A5YKK6); assay: as above

- binding [1]: no binding
- binding (CNOT1(800–999) (human)): binds weakly
- binding [2]: binds weakly
B1: human TTP peptide … (residues 312–326) (peptide)
peptide: APRRLPIFNRISVSE
